# Assay results taken from publication PMC6113293, “Phosphorylation of ULK1 affects autophagosome fusion and links chaperone-mediated autophagy to macroautophagy” (Nature Communications, 2018).
# The chains behind the UniProt entries cited, without tags or fusion partners.
# UniProt P11142: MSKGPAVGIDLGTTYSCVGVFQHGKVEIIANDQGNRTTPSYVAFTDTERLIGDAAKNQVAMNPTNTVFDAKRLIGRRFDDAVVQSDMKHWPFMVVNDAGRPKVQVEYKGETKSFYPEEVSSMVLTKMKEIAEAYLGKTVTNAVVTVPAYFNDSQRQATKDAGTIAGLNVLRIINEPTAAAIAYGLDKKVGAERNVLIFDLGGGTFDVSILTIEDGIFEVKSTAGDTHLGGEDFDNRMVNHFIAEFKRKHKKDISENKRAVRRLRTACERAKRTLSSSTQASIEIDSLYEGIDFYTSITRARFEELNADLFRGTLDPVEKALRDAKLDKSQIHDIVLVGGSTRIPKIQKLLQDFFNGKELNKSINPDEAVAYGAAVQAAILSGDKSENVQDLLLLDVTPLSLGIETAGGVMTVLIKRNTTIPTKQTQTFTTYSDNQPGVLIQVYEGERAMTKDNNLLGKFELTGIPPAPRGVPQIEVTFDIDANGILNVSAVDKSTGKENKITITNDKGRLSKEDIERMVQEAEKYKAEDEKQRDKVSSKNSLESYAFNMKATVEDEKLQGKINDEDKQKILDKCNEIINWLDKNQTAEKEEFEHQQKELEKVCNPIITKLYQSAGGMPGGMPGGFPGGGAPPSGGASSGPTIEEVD
# Substitutions are numbered along the chain they refer to. No constants are given. Whether binding was seen depends on the method and setting. Binding seen in cells or lysates may run through a third protein. Some binding calls cover weakened binding; strength is not graded here. Sequences can lack the tags named with a protein.
# Columns and labels:
# Flag-ULK1 = target: T1, Flag-ULK1 (UniProt O75385); assay: co-IP; GST-tagged truncations co-transfected with the tagged partner into HEK293T; 'IP'; which partner was precipitated is not told
# T1 sequence: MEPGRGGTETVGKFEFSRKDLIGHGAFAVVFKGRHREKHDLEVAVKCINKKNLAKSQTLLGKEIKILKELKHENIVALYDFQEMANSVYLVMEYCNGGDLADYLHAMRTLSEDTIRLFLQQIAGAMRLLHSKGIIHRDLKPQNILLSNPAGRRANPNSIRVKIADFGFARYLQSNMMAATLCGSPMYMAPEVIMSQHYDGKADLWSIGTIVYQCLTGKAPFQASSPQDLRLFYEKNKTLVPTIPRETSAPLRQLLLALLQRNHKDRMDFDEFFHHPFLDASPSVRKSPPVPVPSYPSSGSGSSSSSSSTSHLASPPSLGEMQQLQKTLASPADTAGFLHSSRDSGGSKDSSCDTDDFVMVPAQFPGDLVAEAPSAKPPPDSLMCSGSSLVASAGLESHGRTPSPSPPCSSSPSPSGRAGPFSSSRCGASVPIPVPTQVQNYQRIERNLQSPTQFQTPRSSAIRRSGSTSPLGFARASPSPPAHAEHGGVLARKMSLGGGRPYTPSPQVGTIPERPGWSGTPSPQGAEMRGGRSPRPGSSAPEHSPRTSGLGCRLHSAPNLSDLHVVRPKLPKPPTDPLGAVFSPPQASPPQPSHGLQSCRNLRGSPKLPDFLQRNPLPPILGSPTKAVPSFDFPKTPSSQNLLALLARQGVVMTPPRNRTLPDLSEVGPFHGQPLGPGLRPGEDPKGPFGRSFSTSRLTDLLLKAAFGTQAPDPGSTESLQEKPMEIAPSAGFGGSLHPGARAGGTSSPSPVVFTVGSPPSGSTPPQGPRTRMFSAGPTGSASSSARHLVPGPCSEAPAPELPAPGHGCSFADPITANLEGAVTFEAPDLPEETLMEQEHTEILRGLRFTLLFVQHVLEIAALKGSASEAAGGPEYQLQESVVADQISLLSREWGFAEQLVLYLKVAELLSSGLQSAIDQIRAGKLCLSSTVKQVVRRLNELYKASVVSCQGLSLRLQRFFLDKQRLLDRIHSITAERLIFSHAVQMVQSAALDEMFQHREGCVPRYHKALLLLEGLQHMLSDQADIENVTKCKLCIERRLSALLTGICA
# [1] = target: T2, ULK1 S423D (tag not told) (UniProt O75385); assay: co-IP; ULK1 variants transfected with Lamp2a or HA-HSC70; IP assay; which partner was precipitated is not told
# T2 sequence: T1 sequence with S423D
# GST-ULK1 = target: T3, GST-ULK1 (UniProt O75385); assay: pull-down; GST-ULK1 (or GST) co-transfected with the tagged partner in HEK293T; lysate pulled down with glutathione agarose at 4 °C overnight; western blot
# T3 sequence: T1 sequence
# [2] = target: T4, GST-ULK1 279–525 (truncation, in mammalian cells) (UniProt O75385); assay: co-IP; GST-tagged truncations co-transfected with the tagged partner into HEK293T; 'IP'; which partner was precipitated is not told
# T4 sequence: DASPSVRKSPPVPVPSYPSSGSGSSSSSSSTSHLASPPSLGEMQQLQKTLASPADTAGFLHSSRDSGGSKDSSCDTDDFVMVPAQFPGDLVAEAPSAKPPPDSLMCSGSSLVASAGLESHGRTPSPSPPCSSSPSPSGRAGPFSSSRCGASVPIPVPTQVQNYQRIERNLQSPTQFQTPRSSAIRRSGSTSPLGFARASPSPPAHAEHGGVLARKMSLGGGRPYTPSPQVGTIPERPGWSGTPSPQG
substance,measurement,setting,value
GST-PKCα 167–338 (fragment 2) (from UniProt P17252 167-338) (domain or fragment),binding,Flag-ULK1,binds
HA-HSC70 (from UniProt P11142 1-646),binding,[1],binds
same,binding,GST-ULK1,binds
PKCα (construct not told) (from UniProt P17252 1-672) (enzyme),binding,[2],binds
